{"source": "patent US20070020688A1", "about": "“Measurement method using biosensor” (FUJI PHOTO FILM CO., LTD., priority 2005, published 2007)", "assay": "Immobilized amount of trypsin on hydrogel-coated measurement chip by surface plasmon resonance", "data": [{"substance": "Trypsin", "values": [{"measurement": "Protein immobilized amount (RU)", "setting": "Experiment No. 1: phosphate buffer (pH 7.4), 10 mg/ml, 1 hr, washing phosphate buffer (pH 7.4)", "result": 4150, "unit": "RU"}, {"measurement": "Protein immobilized amount (RU)", "setting": "Experiment No. 2: phosphate buffer (pH 7.4), 2 mg/ml, 1 hr, washing phosphate buffer (pH 7.4)", "result": 2580, "unit": "RU"}, {"measurement": "Protein immobilized amount (RU)", "setting": "Experiment No. 3: phosphate buffer (pH 7.4), 2 mg/ml, 1 hr, washing 10 mM NaOH", "result": 2310, "unit": "RU"}, {"measurement": "Protein immobilized amount (RU)", "setting": "Experiment No. 4: acetate buffer (pH 5.0), 0.1 mg/ml, 0.2 hr, washing phosphate buffer (pH 7.4)", "result": 5200, "unit": "RU"}]}]}
